Test results: patent US10159726B2, “Peptides, combination of peptides and scaffolds for use in immunotherapeutic treatment of various cancers” (Immatics Biotechnologies GmbH, priority 2015, dated 2018)
For part of these data: Expression grades refer to the transcript from which the peptide derives; gene names, where given, were looked up from the sequence.

How the values were obtained:
Set-up in all cases: species or system human
[1] = tested on: source genes of selected peptides; experiment: Target coverage of source genes in tumor entities based on TCGA Research Network data; details: over-expressed = more than 2-fold above the highest 75% percentile of normal organs; for Target coverage, over-expression category of source gene, BLCA (N = 408): Bladder urothelial carcinoma; for Target coverage, over-expression category of source gene, CESC (N = 307): Cervical squamous cell carcinoma and endocervical adenocarcinoma; for Target coverage, over-expression category of source gene, HNSC (N = 521): Head and neck squamous cell carcinoma; for Target coverage, over-expression category of source gene, DLBC (N = 48): Lymphoid neoplasm diffuse large B-cell lymphoma; for Target coverage, over-expression category of source gene, MESO (N = 87): Mesothelioma
[2] = tested on: HLA-A*24 molecules of primary tumors; experiment: Identification and relative LC-MS quantitation of HLA-A*24 tumor-associated peptides presented on tissue samples (XPRESIDENT presentation profiles); details: for Peptide Presentation on cancer entities: Table 9B: selected HLA-A*24 peptides, presentation on additional cancer entities
[3] = tested on: source genes of selected peptides; experiment: Expression profiling of source genes by in-house RNAseq, tumor vs normal tissues (target coverage); details: for Target coverage, over-expression of source gene, AML: AML (N = 7); for Target coverage, over-expression of source gene, AML / Target coverage, over-expression of source gene, BRCA / Target coverage, over-expression of source gene, CLL / Target coverage, over-expression of source gene, CRC / Target coverage, over-expression of source gene, GB / Target coverage, over-expression of source gene, HCC / Target coverage, over-expression of source gene, OC / Target coverage, over-expression of source gene, OSCAR / Target coverage, over-expression of source gene, PC / Target coverage, over-expression of source gene, RCC / Target coverage, over-expression of source gene, SCLC / Target coverage, over-expression of source gene, pNSCLC: in-house RNASeq; for Target coverage, over-expression of source gene, BRCA: BRCA (N = 10); for Target coverage, over-expression of source gene, CLL: CLL (N = 10); for Target coverage, over-expression of source gene, CRC: CRC (N = 20); for Target coverage, over-expression of source gene, GB: GB (N = 24); for Target coverage, over-expression of source gene, HCC: HCC (N = 15); for Target coverage, over-expression of source gene, OC: OC (N = 12); for Target coverage, over-expression of source gene, OSCAR: OSCAR (N = 11); for Target coverage, over-expression of source gene, PC: PC (N = 26); for Target coverage, over-expression of source gene, RCC: RCC (N = 10); for Target coverage, over-expression of source gene, SCLC: SCLC (N = 10); for Target coverage, over-expression of source gene, pNSCLC: pNSCLC (N = 11)
[4] = over-expression = more than 1.5-fold higher expression on tumor vs highest-expressing relevant normal tissue
[5] = over-expression = more than 1.5-fold vs highest normal tissue
[6] = share of tumors with more than 1.5-fold higher expression than highest relevant normal tissue

Row | Substance | Target coverage, over-expression category of source gene, BLCA (N = 408) [1] | Target coverage, over-expression category of source gene, CESC (N = 307) [1] | Target coverage, over-expression category of source gene, HNSC (N = 521) [1] | Target coverage, over-expression category of source gene, DLBC (N = 48) [1] | Target coverage, over-expression category of source gene, MESO (N = 87) [1] | Peptide Presentation on cancer entities [2] | Target coverage, over-expression of source gene, AML [3, 4] | Target coverage, over-expression of source gene, BRCA [3, 5] | Target coverage, over-expression of source gene, CLL [3, 5] | Target coverage, over-expression of source gene, CRC [3, 5] | Target coverage, over-expression of source gene, GB [3, 5] | Target coverage, over-expression of source gene, HCC [3, 5] | Target coverage, over-expression of source gene, OC [3, 5] | Target coverage, over-expression of source gene, OSCAR [3, 5] | Target coverage, over-expression of source gene, PC [3, 5] | Target coverage, over-expression of source gene, RCC [3, 5] | Target coverage, over-expression of source gene, SCLC [3, 5] | Target coverage, over-expression of source gene, pNSCLC [3, 5] | also measured
1 | 164: peptide found in IL4I1 (gene looked up) (HYVPATKVF; listed as Homo sapiens) [compound 164] | B (>=20% of tumors above the cutoff, but <50%) | B (>=20% of tumors above the cutoff, but <50%) | B (>=20% of tumors above the cutoff, but <50%) | A (>=50% of tumors above the cutoff) | B (>=20% of tumors above the cutoff, but <50%) | NSCLC | I (<19% over-expression = I) | II (20-49% = II) | I (<19% over-expression = I) | I (<19% over-expression = I) | I (<19% over-expression = I) | I (<19% over-expression = I) | IV (>70% = IV) | III (50-69% = III) | I (<19% over-expression = I) | II (20-49% = II) | II (20-49% = II) | IV (>70% = IV) | Target coverage, over-expression category of source gene, CHOL (N = 36) ([1]; Cholangiocarcinoma): C (>=5% of tumors above the cutoff, but <20%); Target coverage, over-expression category of source gene, KIRP (N = 291) ([1]; Kidney renal papillary cell carcinoma): B (>=20% of tumors above the cutoff, but <50%)
2 | 110: peptide found in FANCD2 (gene looked up) (SYPKIIEEF; listed as Homo sapiens) [compound 110] | B (>=20% of tumors above the cutoff, but <50%) | A (>=50% of tumors above the cutoff) | C (>=5% of tumors above the cutoff, but <20%) | A (>=50% of tumors above the cutoff) | C (>=5% of tumors above the cutoff, but <20%) | PCA | I (<19% over-expression = I) | I (<19% over-expression = I) | III (50-69% = III) | I (<19% over-expression = I) | I (<19% over-expression = I) | I (<19% over-expression = I) | I (<19% over-expression = I) | I (<19% over-expression = I) | I (<19% over-expression = I) | I (<19% over-expression = I) | I (<19% over-expression = I) | I (<19% over-expression = I) | ENTITIES ([2]; Table 9A: selected HLA-A*24-binding tumor-associated peptides, cancer entities on which the peptide was found presented): GB, HCC, NSCLC, GC; Target coverage for source genes of selected peptides, GBC_CCC (N = 10) ([3]; gallbladder adenocarcinoma and cholangiocarcinoma, share of tumors with more than 1.5-fold higher expression than the highest-expressing relevant normal tissue, in-house RNAseq): I (<19% over-expression = I); Target coverage for source genes of selected peptides, GC (N = 11) ([3]; gastric cancer, share of tumors with more than 1.5-fold higher expression than the highest-expressing relevant normal tissue, in-house RNAseq): I (<19% over-expression = I); Target coverage for source genes of selected peptides, HNSCC (N = 10) ([3]; head and neck small cell carcinoma, share of tumors with more than 1.5-fold higher expression than the highest-expressing relevant normal tissue, in-house RNAseq): I (<19% over-expression = I); Target coverage for source genes of selected peptides, MEL (N = 10) ([3]; melanoma, share of tumors with more than 1.5-fold higher expression than the highest-expressing relevant normal tissue, in-house RNAseq): I (<19% over-expression = I); Target coverage for source genes of selected peptides, NHL (N = 10) ([3]; non-Hodgkin lymphoma, share of tumors with more than 1.5-fold higher expression than the highest-expressing relevant normal tissue, in-house RNAseq): II (20-49% = II); Target coverage for source genes of selected peptides, PCA (n = 10) ([3]; prostate cancer and benign prostate hyperplasia, share of tumors with more than 1.5-fold higher expression than the highest-expressing relevant normal tissue, in-house RNAseq): I (<19% over-expression = I); Target coverage for source genes of selected peptides, UBC (N = 10) ([3]; urinary bladder cancer, share of tumors with more than 1.5-fold higher expression than the highest-expressing relevant normal tissue, in-house RNAseq): I (<19% over-expression = I); Target coverage for source genes of selected peptides, UTC (N = 10) ([3]; uterine cancer, share of tumors with more than 1.5-fold higher expression than the highest-expressing relevant normal tissue, in-house RNAseq): I (<19% over-expression = I)
3 | 374: peptide found in PRKDC (gene looked up) (VFLPRVTEL; listed as Homo sapiens) [compound 374] | C (>=5% of tumors above the cutoff, but <20%) | C (>=5% of tumors above the cutoff, but <20%) | B (>=20% of tumors above the cutoff, but <50%) | – | – | NSCLC | – | – | – | – | – | – | – | – | – | – | – | – | Target coverage, over-expression of source gene, AML [3, 6]: I (<19% over-expression = I); Target coverage, over-expression of source gene, BRCA [3, 6]: III (50-69% = III); Target coverage, over-expression of source gene, CLL [3, 6]: I (<19% over-expression = I); Target coverage, over-expression of source gene, CRC [3, 6]: II (20-49% = II); Target coverage, over-expression of source gene, GB [3, 6]: III (50-69% = III); Target coverage, over-expression of source gene, HCC [3, 6]: I (<19% over-expression = I); Target coverage, over-expression of source gene, OC [3, 6]: III (50-69% = III); Target coverage, over-expression of source gene, OSCAR [3, 6]: II (20-49% = II); Target coverage, over-expression of source gene, PC [3, 6]: I (<19% over-expression = I); Target coverage, over-expression of source gene, RCC [3, 6]: I (<19% over-expression = I); Target coverage, over-expression of source gene, SCLC [3, 6]: IV (>70% = IV); Target coverage, over-expression of source gene, pNSCLC [3, 6]: III (50-69% = III)
